These are yes or no findings as the source states them, for the method shown. Some entries that bind do so weakly or less than the wild type.
Key:
[1] = biological target: Bovine Serum Albumin (bovine) (UniProt P02769); experiment: TEM (negative stain) of h9e/BSA mixture
[2] = biological target: Human Serum Albumin (human) (UniProt P02768); experiment: TEM (negative stain) of h9e/HSA mixture

Sequences of proteins named here, by UniProt entry; tags and fusion partners are left off. Residues count along the entry.
UniProt P02769, residues 25-607: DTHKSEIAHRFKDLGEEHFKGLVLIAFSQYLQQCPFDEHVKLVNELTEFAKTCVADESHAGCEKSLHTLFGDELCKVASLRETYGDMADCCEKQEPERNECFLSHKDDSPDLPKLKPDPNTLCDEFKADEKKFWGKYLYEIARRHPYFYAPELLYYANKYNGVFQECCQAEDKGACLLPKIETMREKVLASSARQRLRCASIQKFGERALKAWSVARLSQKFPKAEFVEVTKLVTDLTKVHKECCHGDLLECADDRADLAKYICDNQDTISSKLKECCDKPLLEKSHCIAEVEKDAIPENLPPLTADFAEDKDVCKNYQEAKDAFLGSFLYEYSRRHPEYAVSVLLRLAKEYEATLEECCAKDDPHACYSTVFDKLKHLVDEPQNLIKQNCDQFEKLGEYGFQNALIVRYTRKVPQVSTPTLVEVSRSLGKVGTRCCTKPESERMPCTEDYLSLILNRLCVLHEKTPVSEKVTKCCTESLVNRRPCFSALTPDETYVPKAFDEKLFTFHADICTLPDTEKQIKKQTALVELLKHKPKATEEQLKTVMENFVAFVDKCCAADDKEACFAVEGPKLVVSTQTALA
UniProt P02768, residues 25-609: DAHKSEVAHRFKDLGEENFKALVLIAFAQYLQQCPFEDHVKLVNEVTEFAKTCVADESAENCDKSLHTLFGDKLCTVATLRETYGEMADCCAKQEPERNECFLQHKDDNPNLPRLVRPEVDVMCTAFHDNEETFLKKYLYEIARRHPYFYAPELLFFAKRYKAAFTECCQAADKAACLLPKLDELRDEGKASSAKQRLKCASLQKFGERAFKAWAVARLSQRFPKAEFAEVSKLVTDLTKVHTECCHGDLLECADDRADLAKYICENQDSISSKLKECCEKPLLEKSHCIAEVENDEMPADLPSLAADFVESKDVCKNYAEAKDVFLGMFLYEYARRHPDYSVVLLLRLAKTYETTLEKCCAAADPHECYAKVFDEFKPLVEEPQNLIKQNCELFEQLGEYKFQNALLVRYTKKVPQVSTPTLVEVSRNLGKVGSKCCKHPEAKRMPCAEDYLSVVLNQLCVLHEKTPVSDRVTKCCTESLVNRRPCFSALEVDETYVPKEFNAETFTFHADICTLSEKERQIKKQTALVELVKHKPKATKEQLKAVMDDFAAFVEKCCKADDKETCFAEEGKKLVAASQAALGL

binding [1]: binds | binding [2]: binds
Binder: FLIVIGSIIGPGGDGPGGD [h9e peptide]

From patent US20160030629A1, “PEPTIDE-ALBUMIN HYDROGEL PROPERTIES AND ITS APPLICATIONS” (KANSAS STATE UNIVERSITY RESEARCH FOUNDATION, priority 2012, published 2016)
